Among the data in article doi:10.1101/740472 are binding values, retold here.

Like-named read-outs stand apart in the source and are kept apart here. Results are given in words; binding and its absence hold for the method and conditions named. Binding seen in cells or lysates may run through a third protein. Some results given as binding are weak or reduced against the parent protein; the word gives no strength. Where a sequence is shown, tags or fusion partners need not be part of it.

Assay [1] concerns the target T1, HA-tagged human ISLR (hISLR-HA) (human) (UniProt O14498).
T1 sequence: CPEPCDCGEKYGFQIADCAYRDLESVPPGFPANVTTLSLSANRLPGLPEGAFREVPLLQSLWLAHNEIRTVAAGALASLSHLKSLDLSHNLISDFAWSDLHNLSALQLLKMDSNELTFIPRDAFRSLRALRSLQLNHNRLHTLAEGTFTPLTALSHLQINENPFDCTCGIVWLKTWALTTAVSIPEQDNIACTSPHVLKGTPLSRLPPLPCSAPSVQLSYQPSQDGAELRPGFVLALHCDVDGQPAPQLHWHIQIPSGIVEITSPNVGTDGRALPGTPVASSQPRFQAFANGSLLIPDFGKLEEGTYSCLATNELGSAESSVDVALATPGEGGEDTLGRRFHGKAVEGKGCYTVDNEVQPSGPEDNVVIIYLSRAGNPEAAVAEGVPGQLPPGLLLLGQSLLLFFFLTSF
In words: co-IP.

Assay [2] concerns the target T1, HA-tagged human ISLR (hISLR-HA) (human). In words: co-IP. This is another data set of the same source.

As for “FAT1 (transmembrane protocadherin), endogenous (from UniProt Q14517 22-4588)”, the binding entry in assay [1] is listed as “binds”.

B1: Flag-tagged FAT1 segment, Cadherin domain 13-15 (amino acids 1457-1765) (domain or fragment, UniProt Q14517 1457-1765)
chain: STSKYEVVIPEDTAPETEILQISAVDQDEKNKLIYTLQSSRDPLSLKKFRLDPATGSLYTSEKLDHEAVHQHTLTVMVRDQDVPVKRNFARIVVNVSDTNDHAPWFTASSYKGRVYESAAVGSVVLQVTALDKDKGKNAEVLYSIESGNIGNSFMIDPVLGSIKTAKELDRSNQAEYDLMVKATDKGSPPMSEITSVRIFVTIADNASPKFTSKEYSVELSETVSIGSFVGMVTAHSQSSVVYEIKDGNTGDAFDINPHSGTIITQKALDFETLPIYTLIIQGTNMAGLSTNTTVLVHLQDENDNAPVF
B1: the binding entry in assay [2] is given as “binds”.
